Here are results for 22 molecules from PubChem BioAssay AID256 (DTP/NCI, 2004).

The subject of this assay is CD2F1 mice, L1210 leukemia ip, survival T/C. Briefly: NCI In Vivo Anticancer Drug Screen. Data for tumor model L1210 Leukemia (intraperitoneal) in CD2F1 (CDF1) mice. To be noted: higher T/C = longer survival. The method in brief: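 In this screen, transplantable tumors were grown in mice given either the compound or its vehicle. Results were expressed as the treated measurement relative to the control measurement.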

Where [1] appears, read: T/C endpoint: mean survival time, dose: 100.0 mg/kg/injection, schedule: Q04DX003 (ip), vehicle: saline with Tween-80.
[2] abbreviates: T/C endpoint: mean survival time, dose: 150.0 mg/kg/injection, schedule: Q01DX001 (ip), vehicle: saline.
Setting [3] is: T/C endpoint: mean survival time, dose: 300.0 mg/kg/injection, schedule: Q01DX001 (ip), vehicle: saline.
Setting [4] is: T/C endpoint: mean survival time, dose: 200.0 mg/kg/injection, schedule: Q01DX001 (ip), vehicle: saline with Tween-80.
Where [5] appears, read: T/C endpoint: mean survival time, dose: 400.0 mg/kg/injection, schedule: Q01DX001 (ip), vehicle: saline.
Setting [6] is: T/C endpoint: mean survival time, dose: 200.0 mg/kg/injection, schedule: Q04DX003 (ip), vehicle: saline with Tween-80.
Setting [7] is: T/C endpoint: mean survival time, dose: 400.0 mg/kg/injection, schedule: Q01DX009 (ip), vehicle: saline with Tween-80.
[8] abbreviates: T/C endpoint: mean survival time, dose: 200.0 mg/kg/injection, schedule: Q01DX001 (ip), vehicle: saline.
The mark [9] stands for this setting: T/C endpoint: mean survival time, dose: 175.0 mg/kg/injection, schedule: Q04DX003 (ip), vehicle: saline.

Molecules are shown by their SMILES. The list shows only some results of the screen, not a fair sample: it gathers tests that were run many times, whatever their T/C, doses with no T/C, and many T/C values between a quarter and a half above the control. Other doses and runs of a compound stand elsewhere. T/C is the treated group as % of the vehicle group. Some entries give survivors of the animals treated and no T/C: the source files T/C as zero there, which appears to mark a toxic dose or a test without result, not a measured value. Some survivor counts are full or nearly so, which does not show that the dose was tolerated: survival well below the control is almost never listed, so the zero probably covers shortened survival too. Counts of survivors are from the toxicity check (mostly the fifth day) where no day follows; animals may have died later. Schedule codes are those of the source, read here as Q, the interval in days (D) or hours (H), X, the number of doses. Some molecules as drawn cover several salts, stereoisomers or complexes of the source; a dose is that of the sample tested. For survival time, the PubChem record calls one and a half times the control and up active, and a quarter to a half above the control has no call in these data; cut-offs in other NCI protocols can differ. Some doses were run more than once; their values stand side by side, smallest first. Some T/C values carry the count of animals alive at the toxicity check (mostly the fifth day); without a count, all were alive then.

With `COc1cc(NCc2ccc3nc(N)nc(N)c3c2C)cc(OC)c1OC`, the T/C (T/C endpoint: mean survival time, dose: 7.9 mg/kg/injection, schedule: Q01DX009 (ip), vehicle: Klucel (hydroxypropylcellulose) (HPC)) was 137 % of control; the T/C (T/C endpoint: mean survival time, dose: 8.64 mg/kg/injection, schedule: Q01DX009 (ip), vehicle: other) is 145 % of control; the T/C (T/C endpoint: mean survival time, dose: 10.0 mg/kg/injection, schedule: Q01DX009 (ip), vehicle: sodium bicarbonate) is 134 and 136 % of control; the T/C (T/C endpoint: mean survival time, dose: 11.9 mg/kg/injection, schedule: Q01DX009 (ip), vehicle: Klucel (hydroxypropylcellulose) (HPC)) is 149 % of control; the T/C (T/C endpoint: mean survival time, dose: 14.4 mg/kg/injection, schedule: Q01DX009 (ip), vehicle: other) is 145 % of control; the T/C (T/C endpoint: mean survival time, dose: 15.8 mg/kg/injection, schedule: Q01DX009 (ip), vehicle: water) was 133 % of control. Moreover, the T/C was 139 % of control (T/C endpoint: mean survival time, dose: 23.7 mg/kg/injection, schedule: Q01DX009 (ip), vehicle: water); 146 % of control (T/C endpoint: mean survival time, dose: 35.6 mg/kg/injection, schedule: Q01DX009 (ip), vehicle: water); 135 % of control (T/C endpoint: mean survival time, dose: 53.3 mg/kg/injection, schedule: Q01DX009 (ip), vehicle: water); 144 % of control (T/C endpoint: mean survival time, dose: 60.0 mg/kg/injection, schedule: Q04DX003 (ip), vehicle: sodium bicarbonate); 139 % of control (T/C endpoint: mean survival time, dose: 120.0 mg/kg/injection, schedule: Q01DX009 (ip), vehicle: water); 130 % of control (T/C endpoint: median survival time, dose: 7.5 mg/kg/injection, schedule: Q01DX005 (ip), vehicle: Klucel (hydroxypropylcellulose) (HPC)). Besides, the T/C was 125 and 134 % of control (T/C endpoint: median survival time, dose: 10.0 mg/kg/injection, schedule: Q01DX009 (ip), vehicle: sodium bicarbonate); 137 % of control (T/C endpoint: median survival time, dose: 12.0 mg/kg/injection, schedule: Q01DX009 (ip), vehicle: distilled water + Tween-80); 129 and 136 % of control (T/C endpoint: median survival time, dose: 12.5 mg/kg/injection, schedule: Q01DX009 (ip), vehicle: water); 144 % of control (T/C endpoint: median survival time, dose: 15.0 mg/kg/injection, schedule: Q01DX005 (ip), vehicle: Klucel (hydroxypropylcellulose) (HPC)); 139 % of control (T/C endpoint: median survival time, dose: 18.0 mg/kg/injection, schedule: Q01DX009 (ip), vehicle: distilled water + Tween-80); 139 % of control (T/C endpoint: median survival time, dose: 20.0 mg/kg/injection, schedule: Q01DX009 (ip), vehicle: water). For the same molecule, the T/C is, setting by setting: (T/C endpoint: median survival time, dose: 25.0 mg/kg/injection, schedule: Q01DX009 (ip), vehicle: water) 138 % of control; (T/C endpoint: median survival time, dose: 27.0 mg/kg/injection, schedule: Q01DX009 (ip), vehicle: distilled water + Tween-80) 143 % of control [9 of 10 alive]; (T/C endpoint: median survival time, dose: 30.0 mg/kg/injection, schedule: Q01DX009 (ip), vehicle: water) 146 % of control; (T/C endpoint: median survival time, dose: 40.0 mg/kg/injection, schedule: Q01DX009 (ip), vehicle: Klucel (hydroxypropylcellulose) (HPC)) 129 % of control. Moreover, the survivor count (T/C endpoint: median survival time, dose: 120.0 mg/kg/injection, schedule: Q01DX005 (ip), vehicle: Klucel (hydroxypropylcellulose) (HPC)) is recorded as 6 of 6 and the survivor count (T/C endpoint: median survival time, dose: 200.0 mg/kg/injection, schedule: Q01DX009 (ip), vehicle: water) is 0 of 6.
Take `COC(=O)c1ccc(-n2cc(C(=O)OC)c([N+]#N)c2[O-])cc1`: under setting [1], the survivor count is 6 of 6.
On to `CCC1c2cc(O)c(OC)cc2CCN1C` (centres undefined), for which the survivor count is 1 of 6 under setting [2] and 0 of 6 under setting [3].
As to `O=C1C=CC(c2ccccc2)(c2ccccc2)C=C1`, under setting [4], the survivor count is recorded as 6 of 6.
`O=C(CCCCC(=O)Nc1ccc(C2=NCCN2)cc1)Nc1ccc(C2=NCCN2)cc1`: the T/C (T/C endpoint: mean survival time, dose: 37.5 mg/kg/injection, schedule: Q01DX009 (ip), vehicle: saline) is 147 % of control.
Consider `Nc1nc(=O)n(C2OC(CO)C(O)C2O)c2nc[nH]c12` (centres undefined), for which the survivor count (T/C endpoint: mean survival time, dose: 200.0 mg/kg/injection, schedule: Q01DX005 (ip), vehicle: water) is on record as 3 of 3.
Consider `CCOC(=O)/C=C/SCCCN`, for which the survivor count (T/C endpoint: mean survival time, dose: 400.0 mg/kg/injection, schedule: Q04DX003 (ip), vehicle: saline) is on record as 1 of 6.
Turning to `c1ccc2c(c1)Sc1ccccc1N2CCCNC1=NCCO1`, the survivor count is given as 3 of 6 under setting [4] and 0 of 6 (T/C endpoint: mean survival time, dose: 400.0 mg/kg/injection, schedule: Q01DX001 (ip), vehicle: saline with Tween-80).
In the case of `O=C(SC1=NCCN1)c1ccccc1`, under setting [5], the survivor count is listed as 6 of 6.
Regarding `CC(C)(C(=O)O)C(C)(C)C(=O)O`, the survivor count by setting is: (T/C endpoint: mean survival time, dose: 6.25 mg/kg/injection, schedule: Q01DX001 (ip), vehicle: saline) 1 of 3; (T/C endpoint: mean survival time, dose: 12.5 mg/kg/injection, schedule: Q01DX001 (ip), vehicle: saline) 0 of 3; (T/C endpoint: mean survival time, dose: 25.0 mg/kg/injection, schedule: Q01DX001 (ip), vehicle: saline) 0 of 3.
Turning to `CCCCN(CCCC)CC(O)c1ccc2cc(Cl)cc(Cl)c2n1` (centres undefined), the survivor count is given as 0 of 6 under setting [1]; 0 of 6 under setting [6]; 0 of 6 (T/C endpoint: mean survival time, dose: 400.0 mg/kg/injection, schedule: Q04DX003 (ip), vehicle: saline with Tween-80).
For `CN1C2Cc3cc4c(cc3C1Cc1cc3c(cc12)OCO3)OCO4`, under setting [3], the survivor count is on record as 2 of 6.
In the case of `Nc1nc(=S)c2[nH]c(N=Nc3ccc(S(N)(=O)=O)cc3)nc2[nH]1`, the survivor count by setting is: (T/C endpoint: mean survival time, dose: 100.0 mg/kg/injection, schedule: Q04DX003 (ip), vehicle: Klucel (hydroxypropylcellulose) (HPC)) 0 of 6; (T/C endpoint: mean survival time, dose: 200.0 mg/kg/injection, schedule: Q04DX003 (ip), vehicle: Klucel (hydroxypropylcellulose) (HPC)) 0 of 6.
As to `CC(=O)OCC1OC(S[As](C)SC2OC(COC(C)=O)C(OC(C)=O)C(OC(C)=O)C2OC(C)=O)C(OC(C)=O)C(OC(C)=O)C1OC(C)=O` (centres undefined), the survivor count by setting is: (T/C endpoint: mean survival time, dose: 50.0 mg/kg/injection, schedule: Q01DX009 (ip), vehicle: saline with Tween-80) 0 of 3; (T/C endpoint: mean survival time, dose: 100.0 mg/kg/injection, schedule: Q01DX009 (ip), vehicle: saline with Tween-80) 0 of 3; (T/C endpoint: mean survival time, dose: 200.0 mg/kg/injection, schedule: Q01DX009 (ip), vehicle: saline with Tween-80) 0 of 3.
For the molecule `Cc1ccccc1N=C(N)Nc1ccccc1C`, the survivor count (T/C endpoint: mean survival time, dose: 20.0 mg/kg/injection, schedule: Q04DX003 (ip), vehicle: saline with Tween-80) is 1 of 6 and the survivor count (T/C endpoint: mean survival time, dose: 40.0 mg/kg/injection, schedule: Q04DX003 (ip), vehicle: saline with Tween-80) is 2 of 6.
As for `O=Cc1ccc(N=Nc2c(S(=O)(=O)O)cc3cc(S(=O)(=O)O)cc(O)c3c2O)cc1`, the survivor count under setting [6] is reported as 3 of 6 and the survivor count under setting [7] is 3 of 6.
In the case of `O=C1CC2CCCCC2CO1` (centres undefined), the survivor count is 1 of 6 under setting [2] and 0 of 6 under setting [3].
For `CC1CCC2(OC1)OC1C(O)C3C4CCC5CC(OC6OC(CO)C(OC7OC(CO)C(O)C(OC8OCC(O)C(O)C8O)C7OC7OC(CO)C(O)C(OC8OC(CO)C(O)C(O)C8O)C7O)C(O)C6O)C(O)CC5(C)C4CCC3(C)C1C2C` (centres undefined), the survivor count reads like this: (T/C endpoint: mean survival time, dose: 100.0 mg/kg/injection, schedule: Q01DX001 (ip), vehicle: saline) 0 of 3; under setting [8], 0 of 3; under setting [5], 0 of 3.
On to `COc1cc(OC)c2c(c1Cl)OCC2=O`, for which the survivor count under setting [7] is reported as 2 of 6.
As to `O=P(O)(O)OCC(O)CF` (centres undefined), the survivor count by setting is: (T/C endpoint: mean survival time, dose: 115.5 mg/kg/injection, schedule: Q04DX003 (ip), vehicle: saline) 0 of 6; under setting [9], 0 of 6; (T/C endpoint: mean survival time, dose: 262.5 mg/kg/injection, schedule: Q04DX003 (ip), vehicle: saline) 0 of 6; (T/C endpoint: mean survival time, dose: 350.0 mg/kg/injection, schedule: Q04DX003 (ip), vehicle: saline) 1 of 6. Also, the T/C under setting [9] was 128 % of control [5 of 6 alive].
In the case of `C=CN(C)OC`, the survivor count runs as follows: under setting [8], 1 of 6; under setting [5], 0 of 6.
Take `CC(C#N)(Nc1ccccc1)c1ccco1` (centres undefined): the survivor count (T/C endpoint: mean survival time, dose: 400.0 mg/kg/injection, schedule: Q01DX009 (ip), vehicle: other) is recorded as 0 of 6.
